“And” between values parts separate entries of the source, which are not always exact repeats. Equal entries are not always repeated. Starred links: 1 amine or outer side, 2 acyl side, 3 side chain; linkers in the order of their positions; H or OH if unused. Non-standard residues stand in square brackets, D forms with d. Residues, ends and D or L forms follow the SMILES beside them. X1 = O=C([C@@H](N[*:1])c1ccc(N=Nc2ccccc2)cc1)[*:2]
Test system: E3GY
Assay: CD thermal unfolding curves fitted to a dimeric coiled-coil binding model
Settings: coiled coil with E3GY; for ΔH° (enthalpy where ΔG = 0 and Ku = Kf = 1): CD θ222nm melting 5-90 °C, four concentrations, Fitdis fit
Method: CD melting curves measured at different concentrations were fitted to a coiled-coil binding model (Figures S2 and S3).[39]
CD spectra were recorded on a Jasco J-815 CD spectrometer fitted with a Peltier temperature controller. Spectra were recorded in a 2 mm quartz cuvette at 20 °C using either PBS or low-salt buffer (2 mM NaCl, 10 mM phosphate) at pH 7.4. Spectra were recorded between 190 and 280 nm with 1 nm intervals at a scan rate of 100 nm/min with five subsequent spectra averaged to minimize noise. […] Thermal melting curves were generated by recording θ222nm between 5 and 90 °C at a speed of 1 °C/min. If irradiated samples were used, samples were reilluminated every 30 min. Melting curves were measured at four different concentrations and fitted using the Fitdis software package.[39]

[1] = 340 nm irradiated state (predominantly cis)
[2] = dark state (predominantly trans)

CC[C@H](C)[C@H](NC(=O)[C@H](CCCCN)NC(C)=O)C(=O)N[C@@H](C)C(=O)N[C@@H](C)C(=O)N[C@@H](CC(C)C)C(=O)N[C@@H](CCCCN)C(=O)N[C@@H](CCC(=O)O)C(=O)N[C@@H](CCCCN)C(=O)N[C@H](C(=O)N[C@@H](C)C(=O)N[C@@H](C)C(=O)N[C@@H](CC(C)C)C(=O)N[C@@H](CCCCN)C(=O)N[C@@H](CCC(=O)O)C(=O)N[C@@H](CCCCN)C(=O)N[C@H](C(=O)N[C@@H](C)C(=O)N[C@@H](C)C(=O)N[C@@H](CC(C)C)C(=O)N[C@@H](CCCCN)C(=O)N[C@@H](CCC(=O)O)C(N)=O)[C@@H](C)CC)c1ccc(N=Nc2ccccc2)cc1 [K3-APgly] (Ac-KIAALKEK[X1]AALKEKIAALKE-NH2)
T° (temperature where ΔG = 0 and Ku = Kf = 1) [1]: 110.5 ± 1.9 °C and 110.5 °C
ΔCp (change in heat capacity upon unfolding) [1]: 2.15 ± 0.14 kJ mol^–1k^–1 and 2.15 kJ mol^–1k^–1
ΔH° (enthalpy where ΔG = 0 and Ku = Kf = 1) [1]: 236 ± 7.1 kJ mol^–1 and 236 kJ mol^–1
T° (temperature where ΔG = 0 and Ku = Kf = 1) [2]: 113 ± 1.2 °C and 113.0 °C
ΔCp (change in heat capacity upon unfolding) [2]: 2.8 ± 0.13 kJ mol^–1k^–1 and 2.80 kJ mol^–1k^–1
ΔH° (enthalpy where ΔG = 0 and Ku = Kf = 1) [2]: 285.2 ± 6.5 kJ mol^–1 and 285.2 kJ mol^–1
